The values below come from patent US20040053231A1.

Sequences of proteins named here, by UniProt entry; tags and fusion partners are left off. Residues count along the entry.
UniProt Q09472, residues 300-528: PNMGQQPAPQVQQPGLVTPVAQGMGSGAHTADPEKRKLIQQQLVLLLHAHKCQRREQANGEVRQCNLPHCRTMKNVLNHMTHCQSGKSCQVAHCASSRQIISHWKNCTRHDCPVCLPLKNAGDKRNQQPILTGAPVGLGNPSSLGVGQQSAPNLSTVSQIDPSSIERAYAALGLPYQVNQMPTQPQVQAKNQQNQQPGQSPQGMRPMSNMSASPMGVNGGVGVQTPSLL

The target of assay [1] is GST-p300CH1 (p300 residues 300-528) (UniProt Q09472). Description: GST pull-down of 35S-labelled protein on GST-p300CH1 (FIG. 2A).
Assay [2] shares this target. Description: GST pull-down of 35S-labelled in vitro translated protein on GST-p300CH1.
Assay [3] shares this target. Description: GST pull-down: 35S-labelled in vitro translated HCITEDX on GST tagged p300 (CH1 domain) on glutathione beads, SDS-PAGE and autoradiography.
Assay [4] has the same target. Description: GST pull-down of 35S-labelled SREBP2 (1-462) on GST-CH1.
Assay [5] shares this target. Description: GST-p300CH1 pull-down with peptide competition.

No constants are given. Whether binding was seen depends on the method and setting. Binding seen in cells or lysates may run through a third protein. Some binding calls cover weakened binding; strength is not graded here.

B1: HCITEDX (protein)
chain: MADHLMLAEGYRLVQRPPSAAAAHGPHALRTLPPYAGPGLDSGLRPRGAPLGPPPPRQPGALAYGAFGPPSSFQPFPAVPPPAAGIAHLQPVATPYPGRAAAPPNAPGGPPGPQPAPSAAAPPPPAHALGGMDAELIDEEALTSLELELGLHRVRELPELFLGQSEFDCFSDLGSAPPAGSVSC
modifications: 35S-labelled (in vitro translated) in the GST pull-down assays
In the case of B1, the binding result in assay [1], in assay [2] and in assay [3] was “binds” throughout.

B2: SREBP2 (residues 1-462) (protein, human, UniProt Q12772 1-462, looked up)
chain: MDDSGELGGLETMETLTELGDELTLGDIDEMLQFVSNQVGEFPDLFSEQLCSSFPGSGGSGSSSGSSGSSSSSSNGRGSSSGAVDPSVQRSFTQVTLPSFSPSAASPQAPTLQVKVSPTSVPTTPRATPILQPRPQPQPQPQTQLQQQTVMITPTFSTTPQTRIIQQPLIYQNAATSFQVLQPQVQSLVTSSQVQPVTIQQQVQTVQAQRVLTQTANGTLQTLAPATVQTVAAPQVQQVPVLVQPQIIKTDSLVLTTLKTDGSPVMAAVQNPALTALTTPIQTAALQVPTLVGSSGTILTTMPVMMGQEKVPIKQVPGGVKQLEPPKEGERRTTHNIIEKRYRSSINDKIIELKDLVMGTDAKMHKSGVLRKAIDYIKYLQQVNHKLRQENMVLKLANQKNKLLKGIDLGSLVDNEVDLKIEDFNQNVLLMSPPASDSGSQAGFSPYSIDSEPGSPLLDDAK
modifications: 35S-labelled (in vitro translated)
B2: the binding entry in assay [4] and in assay [5] was “binds” in each case.
